Results as given in PMC3643677.
No constants are given. Whether binding was seen depends on the method and setting. In cells and extracts the contact can be indirect. Some binding calls cover weakened binding; strength is not graded here.

Chains of the proteins cited; added tags and fusions are not shown.
UniProt P40763: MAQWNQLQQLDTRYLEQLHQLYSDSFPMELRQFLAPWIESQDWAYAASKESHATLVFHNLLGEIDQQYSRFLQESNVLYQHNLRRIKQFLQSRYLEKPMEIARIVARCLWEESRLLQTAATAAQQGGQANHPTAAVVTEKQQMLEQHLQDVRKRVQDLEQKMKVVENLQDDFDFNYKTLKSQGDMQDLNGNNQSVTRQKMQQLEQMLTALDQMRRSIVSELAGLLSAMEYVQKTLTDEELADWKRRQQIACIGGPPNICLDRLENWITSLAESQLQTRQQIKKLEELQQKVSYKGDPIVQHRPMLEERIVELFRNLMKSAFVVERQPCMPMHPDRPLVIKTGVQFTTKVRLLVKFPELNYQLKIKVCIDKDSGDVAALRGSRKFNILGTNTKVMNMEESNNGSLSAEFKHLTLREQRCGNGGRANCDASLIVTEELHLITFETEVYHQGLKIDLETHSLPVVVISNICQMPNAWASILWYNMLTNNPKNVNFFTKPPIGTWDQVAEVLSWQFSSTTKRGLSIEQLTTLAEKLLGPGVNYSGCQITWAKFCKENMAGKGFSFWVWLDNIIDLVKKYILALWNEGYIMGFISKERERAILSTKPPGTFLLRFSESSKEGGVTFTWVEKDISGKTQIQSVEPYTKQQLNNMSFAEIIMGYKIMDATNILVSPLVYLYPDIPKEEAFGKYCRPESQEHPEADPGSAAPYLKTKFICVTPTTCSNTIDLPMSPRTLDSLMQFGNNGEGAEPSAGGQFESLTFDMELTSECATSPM
UniProt P07355: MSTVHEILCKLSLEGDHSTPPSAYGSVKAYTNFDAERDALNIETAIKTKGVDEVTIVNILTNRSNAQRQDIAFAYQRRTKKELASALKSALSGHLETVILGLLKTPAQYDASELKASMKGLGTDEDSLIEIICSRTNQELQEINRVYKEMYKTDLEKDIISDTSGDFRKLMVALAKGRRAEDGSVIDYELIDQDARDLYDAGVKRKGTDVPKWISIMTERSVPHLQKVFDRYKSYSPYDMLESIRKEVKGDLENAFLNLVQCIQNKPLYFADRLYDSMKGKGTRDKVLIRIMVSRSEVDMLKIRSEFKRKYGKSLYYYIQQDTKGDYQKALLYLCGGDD

How the values were obtained:
[1] = biological target: signal transducer and activator of transcription-3 (human (endogenous in SK-BR-3)) (UniProt P40763); assay: co-IP; SK-BR-3 whole-cell lysate; immunoprecipitated with anti-Stat3 or anti-Anxa2 antibody and protein A/G (protein G-Sepharose) beads overnight; lysis buffer 50 mM Tris pH 7.4, 10% glycerol, 0.1% SDS, 10 mM NaF, 2 mM PMSF, 1 mM dithiothreitol; immunoblot
[2] = biological target: Annexin A2 (human (endogenous in SK-BR-3)) (UniProt P07355); assay: as above

| Substance | binding [1] | binding [2] |
| --- | --- | --- |
| Annexin A2 (from UniProt P07355 1-339) | binds | – |
| signal transducer and activator of transcription-3 (from UniProt P40763 1-770) | – | binds |
